The chains behind the UniProt entries cited, without tags or fusion partners. Where a name states a change or a piece, a line headed by the entry shows the natural chain unless it says otherwise.
UniProt Q9HCG8: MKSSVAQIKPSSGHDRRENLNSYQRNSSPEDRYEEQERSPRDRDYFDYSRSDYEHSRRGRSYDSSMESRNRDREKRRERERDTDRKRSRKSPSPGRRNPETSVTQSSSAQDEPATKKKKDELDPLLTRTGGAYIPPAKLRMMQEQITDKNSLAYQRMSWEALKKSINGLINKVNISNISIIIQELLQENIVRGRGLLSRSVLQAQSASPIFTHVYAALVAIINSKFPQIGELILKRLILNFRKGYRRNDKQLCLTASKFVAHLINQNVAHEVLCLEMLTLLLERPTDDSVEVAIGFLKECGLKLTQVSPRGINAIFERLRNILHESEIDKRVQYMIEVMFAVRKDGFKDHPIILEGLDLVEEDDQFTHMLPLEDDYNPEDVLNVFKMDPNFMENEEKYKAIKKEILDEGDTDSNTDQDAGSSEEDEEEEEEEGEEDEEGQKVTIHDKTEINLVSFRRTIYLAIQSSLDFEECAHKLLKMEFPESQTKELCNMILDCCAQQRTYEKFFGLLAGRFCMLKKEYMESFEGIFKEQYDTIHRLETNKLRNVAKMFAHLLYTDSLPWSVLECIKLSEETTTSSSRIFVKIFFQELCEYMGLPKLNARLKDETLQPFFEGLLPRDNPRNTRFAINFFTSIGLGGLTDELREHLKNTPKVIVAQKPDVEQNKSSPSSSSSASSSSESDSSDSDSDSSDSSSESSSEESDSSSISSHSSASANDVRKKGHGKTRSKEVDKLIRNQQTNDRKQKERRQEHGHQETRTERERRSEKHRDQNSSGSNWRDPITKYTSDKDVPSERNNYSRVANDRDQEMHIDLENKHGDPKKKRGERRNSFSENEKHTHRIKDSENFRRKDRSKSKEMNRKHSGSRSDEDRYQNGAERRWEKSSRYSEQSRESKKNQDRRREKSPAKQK
UniProt Q9H9C1: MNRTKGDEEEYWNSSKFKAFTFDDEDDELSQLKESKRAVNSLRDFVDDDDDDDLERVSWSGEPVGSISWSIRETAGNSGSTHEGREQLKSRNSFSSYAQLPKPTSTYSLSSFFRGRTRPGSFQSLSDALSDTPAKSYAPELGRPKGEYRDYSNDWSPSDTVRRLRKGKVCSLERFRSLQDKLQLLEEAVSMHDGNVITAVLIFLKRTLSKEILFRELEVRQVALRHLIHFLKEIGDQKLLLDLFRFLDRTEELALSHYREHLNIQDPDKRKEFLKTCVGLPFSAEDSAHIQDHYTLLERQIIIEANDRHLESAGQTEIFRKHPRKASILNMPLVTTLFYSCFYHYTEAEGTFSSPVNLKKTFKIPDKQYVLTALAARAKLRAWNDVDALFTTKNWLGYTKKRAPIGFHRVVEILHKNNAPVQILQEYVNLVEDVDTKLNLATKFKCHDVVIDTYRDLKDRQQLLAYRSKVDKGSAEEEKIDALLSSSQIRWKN
UniProt Q9H816: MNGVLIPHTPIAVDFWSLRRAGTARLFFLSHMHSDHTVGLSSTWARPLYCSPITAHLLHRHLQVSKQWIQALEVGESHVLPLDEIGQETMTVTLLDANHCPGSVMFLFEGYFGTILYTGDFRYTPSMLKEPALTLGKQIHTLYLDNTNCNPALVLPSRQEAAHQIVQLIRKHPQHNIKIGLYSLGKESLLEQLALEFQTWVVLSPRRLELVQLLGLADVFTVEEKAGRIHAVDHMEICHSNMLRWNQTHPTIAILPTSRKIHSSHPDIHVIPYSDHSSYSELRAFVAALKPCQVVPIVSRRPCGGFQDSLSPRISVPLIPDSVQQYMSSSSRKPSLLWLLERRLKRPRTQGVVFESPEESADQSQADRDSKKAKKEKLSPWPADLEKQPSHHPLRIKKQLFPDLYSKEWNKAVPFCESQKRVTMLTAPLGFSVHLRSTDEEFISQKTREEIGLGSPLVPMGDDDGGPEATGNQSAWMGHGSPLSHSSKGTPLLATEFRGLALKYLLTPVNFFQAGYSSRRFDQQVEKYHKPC
UniProt Q9HB58: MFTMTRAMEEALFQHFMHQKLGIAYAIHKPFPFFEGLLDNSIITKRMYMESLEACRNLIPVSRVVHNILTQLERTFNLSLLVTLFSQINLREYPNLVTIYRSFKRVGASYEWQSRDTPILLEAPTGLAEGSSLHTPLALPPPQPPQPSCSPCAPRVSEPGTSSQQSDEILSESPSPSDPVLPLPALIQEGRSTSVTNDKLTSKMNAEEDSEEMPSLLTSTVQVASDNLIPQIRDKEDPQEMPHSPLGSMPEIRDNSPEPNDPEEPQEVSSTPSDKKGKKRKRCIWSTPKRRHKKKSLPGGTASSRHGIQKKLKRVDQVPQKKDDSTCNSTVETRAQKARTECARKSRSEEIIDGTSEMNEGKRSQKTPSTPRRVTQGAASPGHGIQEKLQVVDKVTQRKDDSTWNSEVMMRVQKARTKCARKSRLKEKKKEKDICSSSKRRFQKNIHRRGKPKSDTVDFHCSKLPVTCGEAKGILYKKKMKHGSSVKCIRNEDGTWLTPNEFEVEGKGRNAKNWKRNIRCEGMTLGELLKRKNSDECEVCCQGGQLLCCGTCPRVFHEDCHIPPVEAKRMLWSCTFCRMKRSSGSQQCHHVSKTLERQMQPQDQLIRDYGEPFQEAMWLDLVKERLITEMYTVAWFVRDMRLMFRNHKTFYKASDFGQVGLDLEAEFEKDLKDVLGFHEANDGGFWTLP
UniProt Q9H6S1, whole entry: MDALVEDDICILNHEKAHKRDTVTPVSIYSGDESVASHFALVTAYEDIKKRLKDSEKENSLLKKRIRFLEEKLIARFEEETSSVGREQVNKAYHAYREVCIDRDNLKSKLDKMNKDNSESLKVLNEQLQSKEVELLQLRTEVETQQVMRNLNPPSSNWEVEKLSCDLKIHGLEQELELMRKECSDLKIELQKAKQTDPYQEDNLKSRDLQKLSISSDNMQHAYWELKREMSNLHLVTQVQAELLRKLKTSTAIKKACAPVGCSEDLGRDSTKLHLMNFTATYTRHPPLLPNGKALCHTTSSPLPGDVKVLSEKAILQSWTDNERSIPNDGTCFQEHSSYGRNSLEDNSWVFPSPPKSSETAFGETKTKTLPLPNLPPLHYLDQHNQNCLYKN
UniProt Q9H9B4: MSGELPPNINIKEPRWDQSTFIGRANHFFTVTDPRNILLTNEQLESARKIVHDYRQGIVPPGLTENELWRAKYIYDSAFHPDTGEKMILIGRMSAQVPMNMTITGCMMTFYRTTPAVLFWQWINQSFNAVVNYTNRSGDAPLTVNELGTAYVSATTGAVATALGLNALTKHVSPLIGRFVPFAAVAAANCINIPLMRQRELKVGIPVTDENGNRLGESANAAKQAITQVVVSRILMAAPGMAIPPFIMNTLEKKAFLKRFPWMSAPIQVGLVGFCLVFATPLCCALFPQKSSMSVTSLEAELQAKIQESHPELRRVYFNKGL
UniProt Q9H5L6: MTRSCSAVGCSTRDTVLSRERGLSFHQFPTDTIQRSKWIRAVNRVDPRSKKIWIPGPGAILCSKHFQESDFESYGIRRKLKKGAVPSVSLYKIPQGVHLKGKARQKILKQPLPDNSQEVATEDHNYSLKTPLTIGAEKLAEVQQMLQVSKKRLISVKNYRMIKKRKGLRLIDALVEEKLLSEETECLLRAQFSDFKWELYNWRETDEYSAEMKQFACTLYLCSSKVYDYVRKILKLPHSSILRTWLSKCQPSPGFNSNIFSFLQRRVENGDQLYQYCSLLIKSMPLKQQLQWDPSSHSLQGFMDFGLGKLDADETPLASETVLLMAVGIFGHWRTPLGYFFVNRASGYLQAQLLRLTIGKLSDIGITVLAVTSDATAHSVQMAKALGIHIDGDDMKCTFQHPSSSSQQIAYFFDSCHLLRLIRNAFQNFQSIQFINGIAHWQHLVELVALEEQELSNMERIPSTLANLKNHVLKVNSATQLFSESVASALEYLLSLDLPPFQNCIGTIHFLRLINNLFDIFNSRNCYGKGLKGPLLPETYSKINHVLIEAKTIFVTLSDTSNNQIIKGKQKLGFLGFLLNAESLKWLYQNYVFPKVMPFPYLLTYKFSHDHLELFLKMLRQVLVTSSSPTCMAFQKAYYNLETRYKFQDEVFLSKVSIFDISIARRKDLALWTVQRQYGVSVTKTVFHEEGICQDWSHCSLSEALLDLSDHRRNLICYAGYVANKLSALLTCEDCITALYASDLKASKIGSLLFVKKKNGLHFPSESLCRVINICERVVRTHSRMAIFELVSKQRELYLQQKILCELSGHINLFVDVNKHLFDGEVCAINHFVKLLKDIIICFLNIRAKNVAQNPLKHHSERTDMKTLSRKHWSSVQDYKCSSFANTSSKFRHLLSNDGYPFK
UniProt Q9HC52: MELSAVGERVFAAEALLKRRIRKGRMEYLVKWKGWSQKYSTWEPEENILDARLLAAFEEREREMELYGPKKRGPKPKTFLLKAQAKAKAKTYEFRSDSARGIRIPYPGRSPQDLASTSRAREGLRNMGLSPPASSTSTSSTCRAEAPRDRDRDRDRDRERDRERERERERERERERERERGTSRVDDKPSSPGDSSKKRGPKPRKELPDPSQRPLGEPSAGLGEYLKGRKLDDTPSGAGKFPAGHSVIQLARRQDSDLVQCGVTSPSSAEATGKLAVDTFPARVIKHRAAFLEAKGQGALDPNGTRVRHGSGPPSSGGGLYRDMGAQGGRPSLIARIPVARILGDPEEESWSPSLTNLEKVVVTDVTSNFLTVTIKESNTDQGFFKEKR
UniProt Q9H4H8: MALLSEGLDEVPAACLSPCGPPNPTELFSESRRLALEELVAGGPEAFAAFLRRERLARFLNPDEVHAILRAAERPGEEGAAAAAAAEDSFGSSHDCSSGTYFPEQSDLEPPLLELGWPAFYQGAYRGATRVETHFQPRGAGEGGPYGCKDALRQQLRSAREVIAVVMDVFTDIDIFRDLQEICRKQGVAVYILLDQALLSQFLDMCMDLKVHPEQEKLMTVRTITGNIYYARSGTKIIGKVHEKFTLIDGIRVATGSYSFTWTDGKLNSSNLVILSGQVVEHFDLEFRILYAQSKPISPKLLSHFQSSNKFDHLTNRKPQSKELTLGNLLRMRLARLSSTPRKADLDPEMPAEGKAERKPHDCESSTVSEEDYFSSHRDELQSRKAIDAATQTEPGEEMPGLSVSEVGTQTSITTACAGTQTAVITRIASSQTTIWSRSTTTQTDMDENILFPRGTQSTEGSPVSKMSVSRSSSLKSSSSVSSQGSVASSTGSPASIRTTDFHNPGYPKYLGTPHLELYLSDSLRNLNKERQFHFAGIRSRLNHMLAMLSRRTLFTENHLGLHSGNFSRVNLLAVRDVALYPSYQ
UniProt Q9H4Z2: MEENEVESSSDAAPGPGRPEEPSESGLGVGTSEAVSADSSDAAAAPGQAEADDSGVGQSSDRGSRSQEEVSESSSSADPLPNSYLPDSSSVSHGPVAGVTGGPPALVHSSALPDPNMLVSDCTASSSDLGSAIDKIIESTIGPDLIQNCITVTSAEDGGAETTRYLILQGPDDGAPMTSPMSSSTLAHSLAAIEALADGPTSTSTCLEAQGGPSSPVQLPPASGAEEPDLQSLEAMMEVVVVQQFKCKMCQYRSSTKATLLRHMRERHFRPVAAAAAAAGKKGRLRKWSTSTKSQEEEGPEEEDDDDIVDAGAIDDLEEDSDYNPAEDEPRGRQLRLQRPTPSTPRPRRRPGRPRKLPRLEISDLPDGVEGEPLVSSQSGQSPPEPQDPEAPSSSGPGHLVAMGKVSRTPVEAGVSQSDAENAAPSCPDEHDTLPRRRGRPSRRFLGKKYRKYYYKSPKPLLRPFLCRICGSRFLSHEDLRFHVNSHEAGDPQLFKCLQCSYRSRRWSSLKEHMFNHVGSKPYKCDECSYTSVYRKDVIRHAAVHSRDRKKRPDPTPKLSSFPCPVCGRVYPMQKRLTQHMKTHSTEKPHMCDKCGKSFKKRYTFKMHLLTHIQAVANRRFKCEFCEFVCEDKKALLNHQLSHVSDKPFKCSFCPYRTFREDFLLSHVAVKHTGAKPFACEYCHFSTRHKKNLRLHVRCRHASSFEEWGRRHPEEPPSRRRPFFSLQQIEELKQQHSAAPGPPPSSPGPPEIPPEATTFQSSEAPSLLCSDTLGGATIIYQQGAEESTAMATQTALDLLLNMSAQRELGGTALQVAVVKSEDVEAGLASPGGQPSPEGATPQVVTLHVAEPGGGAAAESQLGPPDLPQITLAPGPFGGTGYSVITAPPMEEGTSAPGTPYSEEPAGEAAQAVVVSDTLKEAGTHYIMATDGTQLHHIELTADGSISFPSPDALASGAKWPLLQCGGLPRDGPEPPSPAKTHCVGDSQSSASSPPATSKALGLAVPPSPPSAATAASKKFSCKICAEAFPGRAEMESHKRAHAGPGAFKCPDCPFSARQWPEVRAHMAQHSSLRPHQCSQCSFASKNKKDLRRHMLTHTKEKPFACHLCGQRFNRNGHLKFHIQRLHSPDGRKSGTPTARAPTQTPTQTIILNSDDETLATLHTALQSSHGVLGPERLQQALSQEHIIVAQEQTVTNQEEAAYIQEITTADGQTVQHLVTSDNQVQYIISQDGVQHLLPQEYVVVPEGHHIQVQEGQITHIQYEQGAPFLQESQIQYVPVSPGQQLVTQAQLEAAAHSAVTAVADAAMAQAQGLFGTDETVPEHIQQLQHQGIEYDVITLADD

This is one part of the list. Most entries show no effect beyond the scatter of the controls.
These targets were tested with Cc1nc(Nc2ncc(C(=O)Nc3c(C)cccc3Cl)s2)cc(N2CCN(CCO)CC2)n1 [dasatinib] (assay: log2 fold change of tryptic peptide abundance, ligand vs vehicle (limited proteolysis) (log2 ratio); higher = more trypsin-susceptible (destabilized)). Conditions: ligand concentration: 5 uM; sample: K562 cleared lysate.
“ETNK1 (peptide sequence: LNVTVQDQEEHR, peptide start residue: 106) (UniProt Q9HBU6)” showed a log2 fold change of 0.34.
Work on “CWC22 (peptide sequence: NSFSENEK, peptide start residue: 828) (UniProt Q9HCG8)” yielded a log2 fold change of 0.136.
“REEP4 (peptide sequence: RGLNIAASAAVQAATK, peptide start residue: 124) (UniProt Q9H6H4)” was tested, and the log2 fold change was -0.52.
Target “UniProt Q9H9C1 (peptide sequence: QQLLAYR, peptide start residue: 461)” has a log2 fold change of -0.479.
“UniProt Q9H6R7 (peptide sequence: HSSTPDHTSTLEPPR, peptide start residue: 527)” was tested, and the log2 fold change was -0.524.
Work on “UniProt Q9H816 (peptide sequence: QLFPDLYSK, peptide start residue: 399)” yielded a log2 fold change of -0.502.
With “UniProt Q9H7X7 (peptide sequence: LVHSNLEDDPEEIR, peptide start residue: 145)” the log2 fold change was 0.0997.
Target “UPF2 (peptide sequence: AFVPAILFK, peptide start residue: 476) (UniProt Q9HAU5)” has a log2 fold change of -0.26.
“KDM4C (peptide sequence: LGPPAEGEVVQVK, peptide start residue: 934) (UniProt Q9H3R0)” showed a log2 fold change of 0.384.
“UniProt Q9H8G2 (peptide sequence: RSTDSSSVSGSLQQETK, peptide start residue: 88)” gave a log2 fold change of 0.527.
“SP110 (peptide sequence: LQVVDKVTQR, peptide start residue: 389) (UniProt Q9HB58)” showed a log2 fold change of -0.75.
“GHITM (peptide sequence: EAALEPSMEK, peptide start residue: 64) (UniProt Q9H3K2)” showed a log2 fold change of 0.159.
Target “ZFYVE28 (peptide sequence: VCTHCYMFHVTPFYSDK, peptide start residue: 868) (UniProt Q9HCC9)” has a log2 fold change of 0.778.
“PPP1R3E (peptide sequence: FADALGLELAVVRR, peptide start residue: 90) (UniProt Q9H7J1)” gave a log2 fold change of -0.52.
“TUBB1 (peptide sequence: EIVHIQIGQCGNQIGAK, peptide start residue: 3) (UniProt Q9H4B7)” gave a log2 fold change of 0.27.
With “AZI2 (peptide sequence: ECSDLKIELQK, peptide start residue: 182) (UniProt Q9H6S1)” the log2 fold change was -0.502.
“BCAS3 (peptide sequence: DVVGSGTELQR, peptide start residue: 873) (UniProt Q9H6U6)” was tested, and the log2 fold change was 0.25.
“ZFAND3 (peptide sequence: CFADFQK, peptide start residue: 35) (UniProt Q9H8U3)” was tested, and the log2 fold change was -0.14.
“FBXL15 (peptide sequence: SLVQLHLAGLRR, peptide start residue: 53) (UniProt Q9H469)” showed a log2 fold change of 0.318.
For “TSPYL2 (peptide sequence: MDRPDEGPPAK, peptide start residue: 1) (UniProt Q9H2G4)”, the log2 fold change was 0.462.
With “SP140L (peptide sequence: ADGQLVSSEKK, peptide start residue: 239) (UniProt Q9H930)” the log2 fold change was -1.3.
Work on “SFXN1 (peptide sequence: HVSPLIGR, peptide start residue: 171) (UniProt Q9H9B4)” yielded a log2 fold change of -0.511.
For “UniProt Q9H765 (peptide sequence: VINLIGQTPISR, peptide start residue: 179)”, the log2 fold change was -0.223.
Work on “CDT1 (peptide sequence: SMDTIVGMLHNR, peptide start residue: 199) (UniProt Q9H211)” yielded a log2 fold change of -0.548.
With “GOLPH3 (peptide sequence: LQLEACGMR, peptide start residue: 103) (UniProt Q9H4A6)” the log2 fold change was -0.219.
“COG4 (peptide sequence: QVASKAEENLLMVLGTDMSDRR, peptide start residue: 242) (UniProt Q9H9E3)” was tested, and the log2 fold change was 0.158.
For “KANSL2 (peptide sequence: DGVSFCAEHVRR, peptide start residue: 83) (UniProt Q9H9L4)”, the log2 fold change was 0.126.
For “THAP9 (peptide sequence: IGSLLFVK, peptide start residue: 749) (UniProt Q9H5L6)”, the log2 fold change was 0.383.
With “C17orf75 (peptide sequence: IVKVEHEEMPEAK, peptide start residue: 366) (UniProt Q9HAS0)” the log2 fold change was -0.293.
In the case of “NEK6 (peptide sequence: KVQIFEMMDAK, peptide start residue: 75) (UniProt Q9HC98)”, the log2 fold change is reported as 0.796.
Target “CBX8 (peptide sequence: KLDDTPSGAGKFPAGHSVIQLAR, peptide start residue: 230) (UniProt Q9HC52)” has a log2 fold change of -0.138.
Work on “FAM83D (peptide sequence: VETHFQPR, peptide start residue: 131) (UniProt Q9H4H8)” yielded a log2 fold change of 0.78.
For “RANBP3 (peptide sequence: VLSPPKLNEVSSDANR, peptide start residue: 331) (UniProt Q9H6Z4)”, the log2 fold change was -0.295.
With “ZNF696 (peptide sequence: AAFLAQAPSGSR, peptide start residue: 25) (UniProt Q9H7X3)” the log2 fold change was -0.294.
In the case of “RABEP2 (peptide sequence: AQLPDLLSEQR, peptide start residue: 498) (UniProt Q9H5N1)”, the log2 fold change is reported as 0.227.
For “C19orf44 (peptide sequence: TDLPQTAESR, peptide start residue: 507) (UniProt Q9H6X5)”, the log2 fold change was -0.0893.
For “ZNF335 (peptide sequence: ELGGTALQVAVVK, peptide start residue: 807) (UniProt Q9H4Z2)”, the log2 fold change was 0.137.
“DEF6 (peptide sequence: QRQEWTAAIQMAIR, peptide start residue: 299) (UniProt Q9H4E7)” showed a log2 fold change of -0.201.

Source: the supplement of paper PMC12819154, “High-throughput peptide-centric local stability assay extends protein–ligand identification to membrane proteins, tissues and bacteria” (Nature Structural & Molecular Biology, 2025)
